We go through 9 compounds from PubChem BioAssay AID248 (DTP/NCI, 2004).

The subject of this test is L1210 leukemia ip in BDF1 mice, survival T/C. The experiment in a line: NCI In Vivo Anticancer Drug Screen. Data for tumor model L1210 Leukemia (intraperitoneal) in B6D2F1 (BDF1) mice. Conditions: T/C endpoint: mean survival time, higher T/C = longer survival.
[1] abbreviates: dose: 100.0 mg/kg/injection, schedule: Q01DX001 (ip), vehicle: saline.
Where [2] appears, read: dose: 200.0 mg/kg/injection, schedule: Q01DX001 (ip), vehicle: saline.
Setting [3] is: dose: 400.0 mg/kg/injection, schedule: Q01DX001 (ip), vehicle: saline.
[4] abbreviates: dose: 300.0 mg/kg/injection, schedule: Q01DX001 (ip), vehicle: saline.

The structures appear in SMILES notation. The list does not hold the whole screen: it covers a few groups of compounds. Not every dose and run of a compound is shown. T/C is the treated group as % of the vehicle group. Some doses have a count of surviving animals in place of a T/C: the source files T/C as zero there, which appears to mark a toxic dose or a test without result, not a measured value. Some doses without a T/C left all or most animals alive at the check, yet need not have been tolerated: the source hardly ever lists a survival T/C far under the control, and the zero likely stands for such cases as well. Counts of survivors are from the toxicity check (mostly the fifth day) where no day follows; animals may have died later. Schedule codes are those of the source, taken here to give the interval after Q, in days (D) or hours (H), and the number of doses after X. Where survival is the endpoint, this PubChem deposit counts one and a half times the control or more as active, and values a quarter to a half above the control carry no call in these data; other NCI protocols may use other cut-offs. Some T/C values are followed by the survivors on the day toxicity was checked, most often the fifth; where neither a count nor a note follows, no animal had died by that day. Some entries were tested several times; the values are given in rising order. Signs of the kind (2×) count equal records among those shown. Some entries show no survivor count and are marked so; the dose need not have been tolerated.

For the compound `O=[N+]([O-])OCC1CO1` (stereo not drawn), the T/C runs as follows: (dose: 12.5 mg/kg/injection, schedule: Q01DX009 (ip), vehicle: saline) 95 % of control [survivor count not shown]; (dose: 25.0 mg/kg/injection, schedule: Q01DX009 (ip), vehicle: saline) 106 % of control [survivor count not shown]; (dose: 50.0 mg/kg/injection, schedule: Q01DX009 (ip), vehicle: saline) 96 [survivor count not shown] and 123 % of control [survivor count not shown]; (dose: 100.0 mg/kg/injection, schedule: Q01DX009 (ip), vehicle: saline) 90 [survivor count not shown] and 93 % of control [survivor count not shown]; (dose: 200.0 mg/kg/injection, schedule: Q01DX009 (ip), vehicle: saline) 97 % of control [survivor count not shown].

Consider `COP(=O)(Cl)N(CCCl)CCCl` (stereo not drawn), for which the T/C (dose: 75.0 mg/kg/injection, schedule: Q01DX001 (ip), vehicle: DMSO) is 110 % of control [5 of 6 alive]; the T/C (dose: 150.0 mg/kg/injection, schedule: Q01DX001 (ip), vehicle: DMSO) is 87 % of control [5 of 6 alive]; the T/C (dose: 300.0 mg/kg/injection, schedule: Q01DX001 (ip), vehicle: DMSO) is 103 % of control [4 of 6 alive].

On to `CCOC(=O)NNC(=O)NP(=O)(NC(=O)NOC)NC(=O)OCC` (stereo not drawn), for which the T/C was 106 % of control under setting [1], 95 % of control under setting [2] and 95 % of control under setting [3].

With `CCC1CC[P+](c2ccccc2)(c2ccccc2)c2ccccc21.F[P-](F)(F)(F)(F)F` (stereo not drawn), the T/C runs as follows: (dose: 50.0 mg/kg/injection, schedule: Q04DX003 (ip), vehicle: Klucel (hydroxypropylcellulose) (HPC)) 109 % of control; (dose: 100.0 mg/kg/injection, schedule: Q04DX003 (ip), vehicle: Klucel (hydroxypropylcellulose) (HPC)) 115 % of control. Besides, the survivor count is 5 of 6 (dose: 200.0 mg/kg/injection, schedule: Q04DX003 (ip), vehicle: Klucel (hydroxypropylcellulose) (HPC)) and 0 of 6 (dose: 400.0 mg/kg/injection, schedule: Q04DX003 (ip), vehicle: Klucel (hydroxypropylcellulose) (HPC)).

For the compound `CONC(=O)NP(=O)(Cl)Cl`, the T/C is 98 % of control (dose: 50.0 mg/kg/injection, schedule: Q01DX001 (ip), vehicle: carboxymethylcellulose (CMC)); 98 % of control (dose: 100.0 mg/kg/injection, schedule: Q01DX001 (ip), vehicle: carboxymethylcellulose (CMC)); 93 % of control (dose: 200.0 mg/kg/injection, schedule: Q01DX001 (ip), vehicle: carboxymethylcellulose (CMC)). Under “dose: 400.0 mg/kg/injection, schedule: Q01DX001 (ip), vehicle: carboxymethylcellulose (CMC)”, the survivor count is recorded as 1 of 4.

Take `CC1CN1P(=O)(Nc1ncccn1)N1CC1C` (stereo not drawn): the T/C was 109 and 121 % of control (dose: 14.0 mg/kg/injection, schedule: Q01DX015 (ip), vehicle: saline); 109 % of control (dose: 20.0 mg/kg/injection, schedule: Q01DX015 (ip), vehicle: saline); 127 % of control (dose: 24.0 mg/kg/injection, schedule: Q01DX015 (ip), vehicle: saline); 120 % of control (dose: 30.0 mg/kg/injection, schedule: Q01DX015 (ip), vehicle: saline); 150 % of control (dose: 40.0 mg/kg/injection, schedule: Q01DX015 (ip), vehicle: saline); 137 % of control (dose: 44.0 mg/kg/injection, schedule: Q01DX015 (ip), vehicle: saline). The T/C is 107, 117, 128 % of control (dose: 50.0 mg/kg/injection, schedule: Q01DX001 (ip), vehicle: saline); 129 % of control (dose: 66.0 mg/kg/injection, schedule: Q01DX015 (ip), vehicle: saline); 132 and 188 % of control (dose: 67.0 mg/kg/injection, schedule: Q01DX015 (ip), vehicle: saline); 146 % of control (dose: 89.0 mg/kg/injection, schedule: Q01DX001 (ip), vehicle: saline); 101 % of control (dose: 99.0 mg/kg/injection, schedule: Q01DX015 (ip), vehicle: saline); 107, 132, 134 % of control under setting [1]. For the same compound, the T/C is 103 % of control (dose: 100.0 mg/kg/injection, schedule: Q01DX015 (ip), vehicle: saline); 152 % of control (dose: 133.0 mg/kg/injection, schedule: Q01DX001 (ip), vehicle: saline); 95 % of control (dose: 150.0 mg/kg/injection, schedule: Q01DX015 (ip), vehicle: saline); 102, 117, 150 % of control (2×) under setting [2]; 107 and 147 % of control [5 of 6 alive] under setting [4]; 117 and 121 % of control under setting [3]. The survivor count by setting is: (dose: 225.0 mg/kg/injection, schedule: Q01DX015 (ip), vehicle: saline) 6 of 6; under setting [4], 3 of 6; under setting [3], 2 of 6.

For the compound `CN(C)C(=O)CCc1ccc(N(CCCl)CCCl)cc1`, the T/C was 106 % of control (dose: 2.5 mg/kg/injection, schedule: Q04DX003 (ip), vehicle: Klucel (hydroxypropylcellulose) (HPC)); 104 % of control (dose: 5.0 mg/kg/injection, schedule: Q01DX009 (ip), vehicle: Klucel (hydroxypropylcellulose) (HPC)); 107 % of control (dose: 5.0 mg/kg/injection, schedule: Q04DX003 (ip), vehicle: Klucel (hydroxypropylcellulose) (HPC)); 112 % of control (dose: 10.0 mg/kg/injection, schedule: Q01DX009 (ip), vehicle: Klucel (hydroxypropylcellulose) (HPC)); 106 % of control (dose: 10.0 mg/kg/injection, schedule: Q04DX003 (ip), vehicle: Klucel (hydroxypropylcellulose) (HPC)); 112 % of control (dose: 20.0 mg/kg/injection, schedule: Q01DX001 (ip), vehicle: Klucel (hydroxypropylcellulose) (HPC)). In addition, the T/C runs as follows: (dose: 20.0 mg/kg/injection, schedule: Q01DX009 (ip), vehicle: Klucel (hydroxypropylcellulose) (HPC)) 110 % of control; (dose: 20.0 mg/kg/injection, schedule: Q04DX003 (ip), vehicle: Klucel (hydroxypropylcellulose) (HPC)) 109 % of control; (dose: 40.0 mg/kg/injection, schedule: Q01DX001 (ip), vehicle: Klucel (hydroxypropylcellulose) (HPC)) 112 % of control [5 of 6 alive]; (dose: 80.0 mg/kg/injection, schedule: Q01DX001 (ip), vehicle: Klucel (hydroxypropylcellulose) (HPC)) 109 % of control; (dose: 100.0 mg/kg/injection, schedule: Q01DX001 (ip), vehicle: Klucel (hydroxypropylcellulose) (HPC)) 128 % of control. In addition, the survivor count (dose: 200.0 mg/kg/injection, schedule: Q01DX001 (ip), vehicle: Klucel (hydroxypropylcellulose) (HPC)) is 0 of 6 and the survivor count (dose: 400.0 mg/kg/injection, schedule: Q01DX001 (ip), vehicle: Klucel (hydroxypropylcellulose) (HPC)) is reported as 0 of 6.

On to `O=[N+]([O-])c1ccc(-n2ncc([N+](=O)[O-])n2)c([N+](=O)[O-])c1`, for which the T/C by setting is: (dose: 75.0 mg/kg/injection, schedule: Q01DX001 (ip), vehicle: other) 107 % of control [survivor count not shown]; (dose: 150.0 mg/kg/injection, schedule: Q01DX001 (ip), vehicle: other) 105 % of control [survivor count not shown].

For `COP1OC(C)C(C)(C)O1` (stereo not drawn), the T/C runs as follows: under setting [1], 102 % of control; under setting [2], 96 % of control; under setting [3], 93 % of control.
